One molecule from patent US20210369854A1 can be followed below.

This experiment deals with human CD5 on cells (MOLT-4 human T lymphoblast cell line; primary human T-cells) (human). The experiment is described as follows: flow cytometry on primary human T-cells, antibody titration, fluorophore-conjugated (AF488) secondary anti-IgG, MFI. For orientation: Flow cytometry measures light scatter and fluorescence of single cells or particles in a stream.

These are yes or no findings as the source states them, for the method shown. Binding calls can cover weak binding; strength is not graded here.

B1: anti-CD5 antibody 5D7 hIgG1 (humanized version of murine antibody 5D7) (antibody, V domains shown)
VH: QVTLKESGPVLVKPTETLTLTCTFSGFSLSTSGMGVGWIRQAPGKGLEWVAHIWWDDDVYYNPSLKSRLTITKDASKDQVSLKLSSVTAADTAVYYCVRRRATGTGFDYWGQGTLVTVSS
VL: NIVMTQSPSSLSASVGDRVTITCQASQDVGTAVAWYQQKPDQSPKLLIYWTSTRHTGVPDRFTGSGSGTDFTLTISSLQPEDIATYFCHQYNSYNTFGSGTKLEIK
On to B1, for which the binding result is reported as “binds”.
